The shares of active, inactive and inconclusive entries below differ from those in the screen. Potencies beside an inconclusive call are fits to weak or partial responses and may not hold up. The source made the active and inactive calls. The call rests on the fitted dose curve; in most records, active means well fitted curve in the direction sought with a large enough effect; inconclusive means small, poorly fitted or top-dose-only effect, or another doubt; inactive means no such curve, though single readings can be large; an effect the other way counts as inactive or inconclusive.
How the values were obtained:
[1] = Quantitative High-Throughput drug screen in 47 multiple myeloma cell lines against the NCATS MIPE library collection: KMS20_JCRB cell viability assay (AID 1918973); conditions: CellTiter-Glo ATP, 48 h; viability (% of DMSO): at 45.8 µM (top of the series); further: nearly all actives have a fitted effect of over 45% in size
Method in brief: (§1)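 CellTiter-Glo ATP luminescence gave viability after 48 h compound treatment at 37C of 500 multiple myeloma cells per well. Normalisation used DMSO-only wells as 100% and media-only wells as 0% viability; primary qHTS of approved and investigational drugs.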

[2] = Quantitative High-Throughput drug screen in 47 multiple myeloma cell lines against the NCATS MIPE library collection: KMS21BM_JCRB cell viability assay (AID 1918974); conditions: ATP luminescence, 48 h; viability: at 45.8 µM (top of the series) unless noted
Method in brief: as §1

[3] = Quantitative High-Throughput drug screen in 47 multiple myeloma cell lines against the NCATS MIPE library collection: KMS26_JCRB cell viability assay (AID 1918975); conditions: KMS26 myeloma cells viability, CellTiter-Glo ATP, 48 h; viability (% of DMSO): at 45.8 µM (top of the series); further: nearly all actives have a fitted effect of over 45% in size
Method in brief: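 Luminescent ATP measurement with CellTiter-Glo gives viability, scaled between DMSO-only wells (100%) and media-only wells (0%). Cells, 500 per well, faced library compounds for 48 hours at 37C.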

[4] = Quantitative High-Throughput drug screen in 47 multiple myeloma cell lines against the NCATS MIPE library collection: MMM1_PLB cell viability assay (AID 1918976); further: nearly all actives have a fitted effect of over 35% in size
Method in brief: (§2)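 Readout: median RLU from CellTiter-Glo after 5 min at room temperature. Preceding step was 48 h drug treatment of 500 cells/well at 37 °C, 5% CO2, with DMSO-only and media-only control wells.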

[5] = Quantitative High-Throughput drug screen in 47 multiple myeloma cell lines against the NCATS MIPE library collection: MOLP8_DSMZ cell viability assay (AID 1918977); conditions: MOLP8 myeloma viability, CellTiter-Glo ATP luminescence, 48 h; viability (% of control): at 45.8 µM (top of the series); further: nearly all actives have a fitted effect of over 45% in size
Method in brief: as §2

[6] = Quantitative High-Throughput drug screen in 47 multiple myeloma cell lines against the NCATS MIPE library collection: NCIH929_DSMZ cell viability assay (AID 1918978); further: nearly all actives have a fitted effect of over 35% in size
Method in brief: as §2

[7] = Quantitative High-Throughput drug screen in 47 multiple myeloma cell lines against the NCATS MIPE library collection: OCIMY1_PLB cell viability assay (AID 1918979); conditions: OCI-MY1 myeloma viability, CellTiter-Glo ATP, 48 h; viability: at 45.8 µM (top of the series) unless noted; further: nearly all actives have a fitted effect of over 35% in size
Method in brief: as §2

[8] = Quantitative High-Throughput drug screen in 47 multiple myeloma cell lines against the NCATS MIPE library collection: MM1S_ATCC cell viability assay (AID 1918980); further: nearly all actives have a fitted effect of over 45% in size
Method in brief: as §2

[9] = Quantitative High-Throughput drug screen in 47 multiple myeloma cell lines against the NCATS MIPE library collection: MM1R_ATCC cell viability assay (AID 1918981); further: nearly all actives have a fitted effect of over 35% in size
Method in brief: as §2

[10] = Quantitative High-Throughput drug screen in 47 multiple myeloma cell lines against the NCATS MIPE library collection: LP1_DSMZ cell viability assay (AID 1918982); conditions: LP1 myeloma viability, CellTiter-Glo ATP luminescence, 48 h; viability (% of control): at 45.8 µM (top of the series); further: nearly all actives have a fitted effect of over 35% in size
Method in brief: as §2

[11] = Quantitative High-Throughput drug screen in 47 multiple myeloma cell lines against the NCATS MIPE library collection: KMS28PE_JCRB cell viability assay (AID 1918983); further: nearly all actives have a fitted effect of over 35% in size
Method in brief: as §2

[12] = Quantitative High-Throughput drug screen in 47 multiple myeloma cell lines against the NCATS MIPE library collection: L363_DSMZ cell viability assay (AID 1918984); conditions: L363 myeloma viability, CellTiter-Glo ATP luminescence, 48 h; viability (% of control): at 45.8 µM (top of the series); further: nearly all actives have a fitted effect of over 40% in size
Method in brief: as §2

[13] = Quantitative High-Throughput drug screen in 47 multiple myeloma cell lines against the NCATS MIPE library collection: KMS34_JCRB cell viability assay (AID 1918985); conditions: KMS34 myeloma viability, CellTiter-Glo ATP luminescence, 48 h; series mostly up to 45.8 µM; further: nearly all actives have a fitted effect of over 40% in size
Method in brief: as §2

[14] = Quantitative High-Throughput drug screen in 47 multiple myeloma cell lines against the NCATS MIPE library collection: OCIMY7_PLB cell viability assay (AID 1918987); conditions: OCI-MY7 myeloma viability, CellTiter-Glo ATP, 48 h; viability (% of DMSO): at 45.8 µM (top of the series); further: nearly all actives have a fitted effect of over 65% in size
Method in brief: as §2

[15] = Quantitative High-Throughput drug screen in 47 multiple myeloma cell lines against the NCATS MIPE library collection: OCIMY5_PLB cell viability assay (AID 1918988); conditions: OCI-MY5 myeloma viability, ATP luminescence, 48 h; series mostly up to 45.8 µM; further: nearly all actives have a fitted effect of over 65% in size
Method in brief: as §2

[16] = Quantitative High-Throughput drug screen in 47 multiple myeloma cell lines against the NCATS MIPE library collection: OPM1_PLB cell viability assay (AID 1918989); further: nearly all actives have a fitted effect of over 40% in size
Method in brief: as §2

[17] = Quantitative High-Throughput drug screen in 47 multiple myeloma cell lines against the NCATS MIPE library collection: SKMM1_PLB cell viability assay (AID 1919863); conditions: SKMM1 myeloma viability, CellTiter-Glo ATP, 48 h; viability: stronger effect = lower value; further: nearly all actives have a fitted effect of over 35% in size
Method in brief: as §2

[18] = Quantitative High-Throughput drug screen in 47 multiple myeloma cell lines against the NCATS MIPE library collection: U266_ATCC cell viability assay (AID 1919864); conditions: U266 myeloma viability, CellTiter-Glo ATP luminescence, 48 h; series mostly up to 45.8 µM; further: nearly all actives have a fitted effect of over 35% in size
Method in brief: as §2

[19] = Quantitative High-Throughput drug screen in 47 multiple myeloma cell lines against the NCATS MIPE library collection: XG6_PLB cell viability assay (AID 1919865); conditions: XG6 myeloma viability, CellTiter-Glo ATP luminescence, 48 h; viability (% of control): at 45.8 µM (top of the series); further: nearly all actives have a fitted effect of over 40% in size
Method in brief: as §2

[20] = Quantitative High-Throughput drug screen in 47 multiple myeloma cell lines against the NCATS MIPE library collection: XG1_PLB cell viability assay (AID 1919866); conditions: CellTiter-Glo ATP, 48 h; viability: at 45.8 µM (top of the series); further: nearly all actives have a fitted effect of over 35% in size
Method in brief: as §2
Potency means the concentration at half of the fitted maximal effect.

Compound	Potency [1]	Potency [2]	Potency [3]	Potency [4]	Potency [5]	Potency [6]	Potency [7]	Potency [8]	Potency [9]	Potency [10]	Potency [11]	Potency [12]	Potency [13]	Potency [14]	Potency [15]	Potency [16]	Potency [17]	Potency [18]	Potency [19]	Potency [20]
CNC(=O)c1c(-c2ccc(F)cc2)oc2cc(N(CCO)S(C)(=O)=O)c(C3CC3)cc12	inconclusive: 8.33 µM [cytotoxic, partial curve, poor fit]	inconclusive: 7.43 µM [cytotoxic, full curve, poor fit]	inconclusive: 18.7 µM [cytotoxic, partial curve, poor fit]	inconclusive: 16.6 µM [cytotoxic, partial curve, poor fit]	inconclusive: 4.18 µM [cytotoxic, full curve, poor fit]	inconclusive: 29.6 µM [cytotoxic, single point]	active: 18.7 µM	inconclusive: 18.7 µM [cytotoxic, partial curve, poor fit]	inconclusive: 18.7 µM [cytotoxic, partial curve, poor fit]	inconclusive: 16.6 µM [cytotoxic, partial curve]	inconclusive: 18.7 µM [cytotoxic, partial curve, poor fit]	inconclusive: 18.7 µM [cytotoxic, partial curve, poor fit]	inconclusive: 16.6 µM [cytotoxic, partial curve, poor fit]	inconclusive: 33.2 µM [cytotoxic, partial curve, poor fit]	inconclusive: 16.6 µM [cytotoxic, partial curve, poor fit]	inconclusive: 18.7 µM [cytotoxic, partial curve, poor fit]	inconclusive: 16.6 µM [cytotoxic, partial curve, poor fit]	inconclusive: 16.6 µM [cytotoxic, partial curve, poor fit]	–	–
CN(C(=O)c1ccc(F)cc1C(F)(F)F)C1CCN(c2nnc(-c3ccnn3C)c3ccccc23)CC1	active: 10.5 µM	inconclusive: 4.69 µM [cytotoxic, partial curve, poor fit]	inconclusive: 13.2 µM [cytotoxic, partial curve, poor fit]	inconclusive: 20.9 µM [cytotoxic, partial curve]	inconclusive: 1.48 µM [cytotoxic, partial curve, poor fit]	inconclusive: 14.8 µM [cytotoxic, partial curve]	inconclusive: 0.0015 µM [rising, full curve]	inconclusive: 11.8 µM [cytotoxic, full curve]	inconclusive: 20.9 µM [cytotoxic, single point]	–	inconclusive: 0.0023 µM [rising, full curve]	inconclusive: 33.2 µM [cytotoxic, single point]	inconclusive: 0.0021 µM [rising, full curve]	–	inconclusive: 20.9 µM [cytotoxic, partial curve, poor fit]	–	inconclusive: 0.0105 µM [rising, full curve, poor fit]	–	inconclusive: 1.87 µM [cytotoxic, full curve]	active: 13.2 µM
CN(C)CCCC1(c2ccc(F)cc2)OCc2cc(C#N)ccc21 (stereo not given)	inconclusive: 37.2 µM [cytotoxic, single point]	inconclusive: 8.33 µM [rising, full curve]	inactive	inconclusive: 6.62 µM [cytotoxic, partial curve, poor fit]	inconclusive: 8.33 µM [cytotoxic, partial curve, poor fit]	inconclusive: 20.9 µM [cytotoxic, partial curve]	inactive	–	inconclusive: 16.6 µM [cytotoxic, partial curve, poor fit]	inactive	inconclusive: 20.9 µM [cytotoxic, partial curve]	inactive	inactive	–	–	inactive	–	–	inconclusive: 23.5 µM [cytotoxic, single point]	inconclusive: 29.6 µM [cytotoxic, single point]
CC=C1C2C=C(C)CC1(N)c1ccc(=O)[nH]c1C2 (stereo not given)	inactive	inconclusive: 37.2 µM [rising, partial curve]	inactive	inconclusive: 0.0053 µM [cytotoxic, full curve, poor fit]	inactive	inactive	–	inactive	–	–	inactive	inactive	inconclusive: 18.7 µM [cytotoxic, partial curve]	inactive	inconclusive: 0.0012 µM [cytotoxic, full curve, poor fit]	inactive	inconclusive: 4.18 µM [cytotoxic, full curve, poor fit]	–	inactive	inactive
